{
  "source": "patent US20210077575A1",
  "about": "“NANOPARTICLES FOR THE TARGETED DELIVERY OF THERAPEUTIC POLYPEPTIDES” (Cedars-Sinai Medical Center, priority 2018, published 2021)",
  "key": {"[1]": {"molecular_target": "HerPBK10 carrier polypeptide comprising a Her cell-targeting segment, a penton base (PB) segment, a decalysine (K10) binding segment, and an N-terminal purification tag", "test": "dynamic light scattering of the mixture against the single components"}, "[2]": {"molecular_target": "HerPBK10 carrier polypeptide comprising a Her cell-targeting segment, a penton base (PB) segment, a decalysine (K10) binding segment, and an N-terminal purification tag", "test": "nanoparticle assembly by mixing at molar ratio 1:3 HerPBK10:GeloninD10"}},
  "note": "Results are given in words; binding and its absence hold for the method and conditions named. Some results given as binding are weak or reduced against the parent protein; the word gives no strength.",
  "data": [
    {"substance": "gelonin with a C-terminal deca-aspartic acid tag (from UniProt P33186 47-297)", "values": [
      {"measurement": "binding", "setting": "[1]", "result": "binds"},
      {"measurement": "binding", "setting": "[2]", "result": "binds"}
    ]}
  ]
}
